Record: PubChem BioAssay AID504793 (Drosophila RNAi Screening Center, 2011)
The deposit covers about 23,000 reagents; this is a random part of those with a known target gene and a result. Over the whole deposit, 62 (0.27%) were called active. 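Calls come from follow-up tests whose scores are not deposited, so confirmed genes may have low counts here; counts are not normalised per plate.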 Raw values are not corrected between plates. Entries without a mark were called inactive.

Test: 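Whole-genome screen for parts of the DNA damage checkpoint at G2/M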 (primary screen)
System: Drosophila S2R+ cells
Reagent: long dsRNA against Drosophila genes, about 0.25 µg dsRNA per well
Timing: 4 days of dsRNA, then 4 hours of drug before read-out
Treatment: doxorubicin 0.5 µM for 4 hours to cause double-strand breaks, in cells also given a low, harmless dose of dsRNA against nbs to sensitise the assay
Detection: 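Mitotic index as the number of phospho-histone H3-positive cells in each well following doxorubicin, given as raw counts without normalisation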
Direction: mitotic cells: higher = more cells in mitosis, weaker G2 arrest
Hit rule: 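a call needs confirmation in secondary tests, with other dsRNAs and a check of mitotic timing without damage, not just a high primary count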
Calls: active = confirmed in follow-up tests; inactive = not confirmed

Against Spc105R (Spc105-related) [DRSC11663], the entry reads mitotic cells, replicate 1 = 9.
With knock-down of CG2540 [DRSC19856], the record shows mitotic cells, replicate 1 = 12.
CG13954 [DRSC06442] showed mitotic cells, replicate 1 = 4.
For CG13954 [DRSC27499], the values are mitotic cells, replicate 1 = 6.
ChAT (Choline acetyltransferase) [DRSC16609] scored mitotic cells, replicate 1 = 13.
Knock-down of ChAT (Choline acetyltransferase) [DRSC22755] resulted in: mitotic cells, replicate 1 = 7.
After knock-down of CG31730 [DRSC01308], the record shows mitotic cells, replicate 1 = 9.
CG11911 [DRSC00331] scored mitotic cells, replicate 1 = 5.
For CG11911 [DRSC27293] the deposit lists mitotic cells, replicate 1 = 7.
Oatp33Eb (Organic anion transporting polypeptide 33Eb) [DRSC02955] gave mitotic cells, replicate 1 = 3.
Snmp1 (Sensory neuron membrane protein 1) [DRSC16168] showed mitotic cells, replicate 1 = 8.

Just “mitotic cells, replicate 1” (3 entries from above):
CG2540 [DRSC19856]	12
CG13954 [DRSC06442]	4
CG13954 [DRSC27499]	6

The list goes on.
Obp56f (Odorant-binding protein 56f) [DRSC22270] scored mitotic cells, replicate 1 = 8.
Depletion of CG7509 [DRSC08596] came out at: mitotic cells, replicate 1 = 3.
Against fz2 (frizzled 2) [DRSC10087], the values are mitotic cells, replicate 2 = 12.
Knock-down of fz2 (frizzled 2) [DRSC11349] resulted in: mitotic cells, replicate 1 = 3.
CG2926 [DRSC12321] gave mitotic cells, replicate 1 = 1.
Silencing of HSPC300 (Haematopoietic stem/progenitor cell protein 300) [DRSC22880] resulted in: mitotic cells, replicate 1 = 12.
Knock-down of DCTN3-p24 (Dynactin 3, p24 subunit) [DRSC04592] resulted in: mitotic cells, replicate 1 = 5.
After knock-down of DCTN3-p24 (Dynactin 3, p24 subunit) [DRSC29156] the results were mitotic cells, replicate 1 = 16.
Knock-down of lambdaTry [DRSC06137] resulted in: mitotic cells, replicate 1 = 7.
With knock-down of CG6149 [DRSC10593] the results were mitotic cells, replicate 1 = 6.
For kappaTry [DRSC06146] the deposit lists mitotic cells, replicate 1 = 9.
Silencing of CG5104 [DRSC11765] resulted in: mitotic cells, replicate 1 = 4.
